Five molecules from article doi:10.1101/2022.09.30.510086 can be followed below.

No constants are given. Whether binding was seen depends on the method and setting. In cells and extracts the contact can be indirect. Some binding calls cover weakened binding; strength is not graded here. Sequences can lack the tags named with a protein.

Test in all cases: co-IP
The target of assay [1] is T1, HA-STIL (SCL/TAL1 interrupting locus protein) (UniProt Q15468).
T1 sequence: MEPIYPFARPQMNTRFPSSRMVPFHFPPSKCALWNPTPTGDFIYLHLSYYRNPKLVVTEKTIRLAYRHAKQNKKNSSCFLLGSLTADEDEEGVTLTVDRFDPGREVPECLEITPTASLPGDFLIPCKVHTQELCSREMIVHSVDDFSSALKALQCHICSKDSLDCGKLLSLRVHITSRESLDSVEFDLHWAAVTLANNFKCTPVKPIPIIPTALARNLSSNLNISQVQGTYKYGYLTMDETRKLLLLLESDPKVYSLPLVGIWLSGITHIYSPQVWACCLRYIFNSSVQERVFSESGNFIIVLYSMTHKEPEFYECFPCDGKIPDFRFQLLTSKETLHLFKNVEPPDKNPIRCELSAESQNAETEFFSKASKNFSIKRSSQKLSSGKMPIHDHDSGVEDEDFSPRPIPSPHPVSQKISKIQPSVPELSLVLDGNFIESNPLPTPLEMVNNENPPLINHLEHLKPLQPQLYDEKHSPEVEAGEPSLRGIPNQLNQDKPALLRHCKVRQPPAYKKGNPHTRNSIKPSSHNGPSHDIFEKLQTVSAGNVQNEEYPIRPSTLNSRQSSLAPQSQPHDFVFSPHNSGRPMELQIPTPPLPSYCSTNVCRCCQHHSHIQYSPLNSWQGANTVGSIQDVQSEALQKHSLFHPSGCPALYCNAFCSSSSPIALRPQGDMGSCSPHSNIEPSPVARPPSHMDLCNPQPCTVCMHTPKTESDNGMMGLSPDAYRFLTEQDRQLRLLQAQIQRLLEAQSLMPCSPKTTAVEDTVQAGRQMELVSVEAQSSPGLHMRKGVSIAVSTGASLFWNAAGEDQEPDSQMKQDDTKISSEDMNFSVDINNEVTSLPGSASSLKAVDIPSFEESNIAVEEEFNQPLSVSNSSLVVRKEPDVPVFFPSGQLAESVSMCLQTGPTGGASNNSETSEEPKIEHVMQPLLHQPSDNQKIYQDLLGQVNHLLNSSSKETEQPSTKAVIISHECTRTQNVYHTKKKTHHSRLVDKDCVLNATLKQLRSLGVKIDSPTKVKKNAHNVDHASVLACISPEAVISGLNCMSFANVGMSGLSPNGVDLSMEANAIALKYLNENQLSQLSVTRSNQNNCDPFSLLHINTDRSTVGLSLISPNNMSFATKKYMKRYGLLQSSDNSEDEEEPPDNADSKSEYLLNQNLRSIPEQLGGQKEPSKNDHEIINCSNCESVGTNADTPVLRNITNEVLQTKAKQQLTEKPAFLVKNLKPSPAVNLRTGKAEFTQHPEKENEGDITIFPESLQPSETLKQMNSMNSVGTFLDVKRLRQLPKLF

The target of assay [2] is T2, GFP-tagged McIdas (not stated (human or mouse cDNA cloned)) (UniProt D6RGH6).
T2 sequence: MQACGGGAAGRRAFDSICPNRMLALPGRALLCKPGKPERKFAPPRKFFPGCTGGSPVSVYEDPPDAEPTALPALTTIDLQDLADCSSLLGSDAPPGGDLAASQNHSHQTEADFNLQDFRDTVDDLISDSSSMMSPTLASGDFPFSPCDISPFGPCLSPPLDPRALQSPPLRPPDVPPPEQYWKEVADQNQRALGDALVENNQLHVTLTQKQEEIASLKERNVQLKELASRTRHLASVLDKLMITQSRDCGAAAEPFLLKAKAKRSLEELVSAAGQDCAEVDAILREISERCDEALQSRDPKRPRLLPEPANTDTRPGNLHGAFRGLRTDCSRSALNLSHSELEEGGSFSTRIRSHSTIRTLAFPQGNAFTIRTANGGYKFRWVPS

The next assay has as its target T3, McIdas-HA (UniProt D6RGH6).
T3 sequence: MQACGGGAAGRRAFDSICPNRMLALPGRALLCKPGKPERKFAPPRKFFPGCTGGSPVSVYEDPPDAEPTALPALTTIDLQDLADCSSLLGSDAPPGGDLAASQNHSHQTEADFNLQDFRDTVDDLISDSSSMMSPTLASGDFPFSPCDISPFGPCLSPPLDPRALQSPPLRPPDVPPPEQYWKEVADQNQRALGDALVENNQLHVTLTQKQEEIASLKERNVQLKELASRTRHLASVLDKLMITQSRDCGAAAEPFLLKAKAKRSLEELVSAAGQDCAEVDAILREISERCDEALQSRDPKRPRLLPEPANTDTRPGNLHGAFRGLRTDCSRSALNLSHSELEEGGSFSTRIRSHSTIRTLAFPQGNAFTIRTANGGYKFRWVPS

For the molecule “GFP-tagged McIdas (from UniProt D6RGH6 1-385)”, the binding result in assay [1] is on record as “no binding”.

B1: myc-PLK4 (Polo-like kinase 4) (enzyme, UniProt O00444 1-970)
chain: MATCIGEKIEDFKVGNLLGKGSFAGVYRAESIHTGLEVAIKMIDKKAMYKAGMVQRVQNEVKIHCQLKHPSILELYNYFEDSNYVYLVLEMCHNGEMNRYLKNRVKPFSENEARHFMHQIITGMLYLHSHGILHRDLTLSNLLLTRNMNIKIADFGLATQLKMPHEKHYTLCGTPNYISPEIATRSAHGLESDVWSLGCMFYTLLIGRPPFDTDTVKNTLNKVVLADYEMPSFLSIEAKDLIHQLLRRNPADRLSLSSVLDHPFMSRNSSTKSKDLGTVEDSIDSGHATISTAITASSSTSISGSLFDKRRLLIGQPLPNKMTVFPKNKSSTDFSSSGDGNSFYTQWGNQETSNSGRGRVIQDAEERPHSRYLRRAYSSDRSGTSNSQSQAKTYTMERCHSAEMLSVSKRSGGGENEERYSPTDNNANIFNFFKEKTSSSSGSFERPDNNQALSNHLCPGKTPFPFADPTPQTETVQQWFGNLQINAHLRKTTEYDSISPNRDFQGHPDLQKDTSKNAWTDTKVKKNSDASDNAHSVKQQNTMKYMTALHSKPEIIQQECVFGSDPLSEQSKTRGMEPPWGYQNRTLRSITSPLVAHRLKPIRQKTKKAVVSILDSEEVCVELVKEYASQEYVKEVLQISSDGNTITIYYPNGGRGFPLADRPPSPTDNISRYSFDNLPEKYWRKYQYASRFVQLVRSKSPKITYFTRYAKCILMENSPGADFEVWFYDGVKIHKTEDFIQVIEKTGKSYTLKSESEVNSLKEEIKMYMDHANEGHRICLALESIISEEERKTRSAPFFPIIIGRKPGSTSSPKALSPPPSVDSNYPTRERASFNRMVMHSAASPTQAPILNPSMVTNEGLGLTTTASGTDISSNSLKDCLPKSAQLLKSVFVKNVGWATQLTSGAVWVQFNDGSQLVVQAGVSSISYTSPNGQTTRYGENEKLPDYIKQKLQCLSSILLMFSNPTPNFH
Turning to B1, the binding result in assay [2] is reported as “binds”.

B2: HA-STIL (SCL/TAL1 interrupting locus protein) (protein, UniProt Q15468 1-1287)
chain: MEPIYPFARPQMNTRFPSSRMVPFHFPPSKCALWNPTPTGDFIYLHLSYYRNPKLVVTEKTIRLAYRHAKQNKKNSSCFLLGSLTADEDEEGVTLTVDRFDPGREVPECLEITPTASLPGDFLIPCKVHTQELCSREMIVHSVDDFSSALKALQCHICSKDSLDCGKLLSLRVHITSRESLDSVEFDLHWAAVTLANNFKCTPVKPIPIIPTALARNLSSNLNISQVQGTYKYGYLTMDETRKLLLLLESDPKVYSLPLVGIWLSGITHIYSPQVWACCLRYIFNSSVQERVFSESGNFIIVLYSMTHKEPEFYECFPCDGKIPDFRFQLLTSKETLHLFKNVEPPDKNPIRCELSAESQNAETEFFSKASKNFSIKRSSQKLSSGKMPIHDHDSGVEDEDFSPRPIPSPHPVSQKISKIQPSVPELSLVLDGNFIESNPLPTPLEMVNNENPPLINHLEHLKPLQPQLYDEKHSPEVEAGEPSLRGIPNQLNQDKPALLRHCKVRQPPAYKKGNPHTRNSIKPSSHNGPSHDIFEKLQTVSAGNVQNEEYPIRPSTLNSRQSSLAPQSQPHDFVFSPHNSGRPMELQIPTPPLPSYCSTNVCRCCQHHSHIQYSPLNSWQGANTVGSIQDVQSEALQKHSLFHPSGCPALYCNAFCSSSSPIALRPQGDMGSCSPHSNIEPSPVARPPSHMDLCNPQPCTVCMHTPKTESDNGMMGLSPDAYRFLTEQDRQLRLLQAQIQRLLEAQSLMPCSPKTTAVEDTVQAGRQMELVSVEAQSSPGLHMRKGVSIAVSTGASLFWNAAGEDQEPDSQMKQDDTKISSEDMNFSVDINNEVTSLPGSASSLKAVDIPSFEESNIAVEEEFNQPLSVSNSSLVVRKEPDVPVFFPSGQLAESVSMCLQTGPTGGASNNSETSEEPKIEHVMQPLLHQPSDNQKIYQDLLGQVNHLLNSSSKETEQPSTKAVIISHECTRTQNVYHTKKKTHHSRLVDKDCVLNATLKQLRSLGVKIDSPTKVKKNAHNVDHASVLACISPEAVISGLNCMSFANVGMSGLSPNGVDLSMEANAIALKYLNENQLSQLSVTRSNQNNCDPFSLLHINTDRSTVGLSLISPNNMSFATKKYMKRYGLLQSSDNSEDEEEPPDNADSKSEYLLNQNLRSIPEQLGGQKEPSKNDHEIINCSNCESVGTNADTPVLRNITNEVLQTKAKQQLTEKPAFLVKNLKPSPAVNLRTGKAEFTQHPEKENEGDITIFPESLQPSETLKQMNSMNSVGTFLDVKRLRQLPKLF
Turning to B2, in assay [2], the binding result is on record as “no binding”.

B3: SAS6-GFP (Spindle assembly abnormal protein 6 homolog) (protein, UniProt Q6UVJ0 1-657)
chain: MSQVLFHQLVPLQVKCKDCEERRVSIRMSIELQSVSNPVHRKDLVIRLTDDTDPFFLYNLVISEEDFQSLKFQQGLLVDFLAFPQKFIDLLQQCTQEHAKEIPRFLLQLVSPAAILDNSPAFLNVVETNPFKHLTHLSLKLLPGNDVEIKKFLAGCLKCSKEEKLSLMQSLDDATKQLDFTRKTLAEKKQELDKLRNEWASHTAALTNKHSQELTNEKEKALQAQVQYQQQHEQQKKDLEILHQQNIHQLQNRLSELEAANKDLTERKYKGDSTIRELKAKLSGVEEELQRTKQEVLSLRRENSTLDVECHEKEKHVNQLQTKVAVLEQEIKDKDQLVLRTKEAFDTIQEQKVVLEENGEKNQVQLGKLEATIKSLSAELLKANEIIKKLQGDLKTLMGKLKLKNTVTIQQEKLLAEKEEKLQKEQKELQDVGQSLRIKEQEVCKLQEQLEATVKKLEESKQLLKNNEKLITWLNKELNENQLVRKQDVLGPSTTPPAHSSSNTIRSGISPNLNVVDGRLTYPTCGIGYPVSSAFAFQNTFPHSISAKNTSHPGSGTKVQFNLQFTKPNASLGDVQSGATISMPCSTDKENGENVGLESKYLKKREDSIPLRGLSQNLFSNSDHQRDGTLGALHTSSKPTALPSASSAYFPGQLPNS
On to B3, for which, in the assay with McIdas-HA, the binding result is “no binding”.

B4: SAS6-SNAP-Flag (protein, UniProt Q6UVJ0 1-657)
chain: MSQVLFHQLVPLQVKCKDCEERRVSIRMSIELQSVSNPVHRKDLVIRLTDDTDPFFLYNLVISEEDFQSLKFQQGLLVDFLAFPQKFIDLLQQCTQEHAKEIPRFLLQLVSPAAILDNSPAFLNVVETNPFKHLTHLSLKLLPGNDVEIKKFLAGCLKCSKEEKLSLMQSLDDATKQLDFTRKTLAEKKQELDKLRNEWASHTAALTNKHSQELTNEKEKALQAQVQYQQQHEQQKKDLEILHQQNIHQLQNRLSELEAANKDLTERKYKGDSTIRELKAKLSGVEEELQRTKQEVLSLRRENSTLDVECHEKEKHVNQLQTKVAVLEQEIKDKDQLVLRTKEAFDTIQEQKVVLEENGEKNQVQLGKLEATIKSLSAELLKANEIIKKLQGDLKTLMGKLKLKNTVTIQQEKLLAEKEEKLQKEQKELQDVGQSLRIKEQEVCKLQEQLEATVKKLEESKQLLKNNEKLITWLNKELNENQLVRKQDVLGPSTTPPAHSSSNTIRSGISPNLNVVDGRLTYPTCGIGYPVSSAFAFQNTFPHSISAKNTSHPGSGTKVQFNLQFTKPNASLGDVQSGATISMPCSTDKENGENVGLESKYLKKREDSIPLRGLSQNLFSNSDHQRDGTLGALHTSSKPTALPSASSAYFPGQLPNS
As to B4, in assay [2], the binding result was “no binding”.
